Results are given in words; binding and its absence hold for the method and conditions named. Where a sequence is shown, tags or fusion partners need not be part of it.
Biological target: T1, C-terminal His6-tagged VanA-type VanS^127-384 (cytoplasmic domain of the histidine kinase VanS) (UniProt Q06240)
T1 sequence: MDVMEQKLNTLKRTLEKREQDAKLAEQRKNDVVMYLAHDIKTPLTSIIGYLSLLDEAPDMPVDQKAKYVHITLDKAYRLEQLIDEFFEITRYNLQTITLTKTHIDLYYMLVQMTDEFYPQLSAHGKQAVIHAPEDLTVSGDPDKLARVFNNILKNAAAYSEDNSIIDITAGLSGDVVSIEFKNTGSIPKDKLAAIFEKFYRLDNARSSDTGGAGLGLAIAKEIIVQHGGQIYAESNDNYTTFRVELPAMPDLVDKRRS
Test: differential scanning fluorimetry

## GGAGHVPEYFVGIGTPISFYG (peptide, UniProt Q9X2V7 38-58, lasso peptide (N-terminal macrolactam ring)) [microcin J25]
  binding: no binding (tested: 25 to 200 µM)
